Earlier results on 1 molecule are cited in paper PMC3208124 (Journal of medicinal chemistry, 2011).

For the data set the following is noted: human, in vivo; cited from earlier work.

Consider `CCCNCC(O)COc1ccccc1C(=O)CCc1ccccc1` (stereo not shown) [propafenone], for which the “rapidly and extensively metabolized in” value is 2 to 10 h.
